Measured values published in paper PMC10373986.
Results are given in words; binding and its absence hold for the method and conditions named. Binding seen in cells or lysates may run through a third protein. These calls come from enrichment with a bait or labelling near it, and not all partners need be listed.

Sequences of proteins named here, by UniProt entry; tags and fusion partners are left off. Residues count along the entry.
UniProt Q02487, residues 136-901: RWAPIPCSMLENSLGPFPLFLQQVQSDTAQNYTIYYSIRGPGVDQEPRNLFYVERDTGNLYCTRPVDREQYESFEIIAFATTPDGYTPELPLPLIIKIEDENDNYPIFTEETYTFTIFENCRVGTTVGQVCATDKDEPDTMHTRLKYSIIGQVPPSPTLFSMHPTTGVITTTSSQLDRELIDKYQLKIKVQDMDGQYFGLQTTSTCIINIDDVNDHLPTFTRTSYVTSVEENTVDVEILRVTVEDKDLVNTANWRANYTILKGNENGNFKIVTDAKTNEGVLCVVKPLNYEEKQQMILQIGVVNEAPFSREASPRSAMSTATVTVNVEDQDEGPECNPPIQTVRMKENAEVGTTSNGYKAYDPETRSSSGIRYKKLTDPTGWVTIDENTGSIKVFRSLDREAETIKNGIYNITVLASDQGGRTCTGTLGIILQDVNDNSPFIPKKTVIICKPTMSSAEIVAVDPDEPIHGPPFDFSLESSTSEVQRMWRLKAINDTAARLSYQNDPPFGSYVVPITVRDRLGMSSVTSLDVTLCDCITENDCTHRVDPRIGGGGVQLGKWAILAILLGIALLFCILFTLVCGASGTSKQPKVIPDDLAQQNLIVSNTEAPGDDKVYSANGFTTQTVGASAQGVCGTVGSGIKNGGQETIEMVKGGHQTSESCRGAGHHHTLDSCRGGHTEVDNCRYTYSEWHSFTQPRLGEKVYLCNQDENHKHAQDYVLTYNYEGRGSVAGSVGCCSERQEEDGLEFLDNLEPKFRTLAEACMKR

Target: desmocollin2 (human) (UniProt Q02487)
Assay: affinity purification with mass spectrometry; protein of MGC-803 cells of the lenti-NC or Lenti-DSC2 group; antibodies on magnetic protein G beads, overnight at 4° C; eluate on SDS-PAGE, trypsin digest, nano LC-MS/MS, MASCOT search

binding: binds
B1: γ-catenin (protein, UniProt P14923 1-745)
chain: MEVMNLMEQPIKVTEWQQTYTYDSGIHSGANTCVPSVSSKGIMEEDEACGRQYTLKKTTTYTQGVPPSQGDLEYQMSTTARAKRVREAMCPGVSGEDSSLLLATQVEGQATNLQRLAEPSQLLKSAIVHLINYQDDAELATRALPELTKLLNDEDPVVVTKAAMIVNQLSKKEASRRALMGSPQLVAAVVRTMQNTSDLDTARCTTSILHNLSHHREGLLAIFKSGGIPALVRMLSSPVESVLFYAITTLHNLLLYQEGAKMAVRLADGLQKMVPLLNKNNPKFLAITTDCLQLLAYGNQESKLIILANGGPQALVQIMRNYSYEKLLWTTSRVLKVLSVCPSNKPAIVEAGGMQALGKHLTSNSPRLVQNCLWTLRNLSDVATKQEGLESVLKILVNQLSVDDVNVLTCATGTLSNLTCNNSKNKTLVTQNSGVEALIHAILRAGDKDDITEPAVCALRHLTSRHPEAEMAQNSVRLNYGIPAIVKLLNQPNQWPLVKATIGLIRNLALCPANHAPLQEAAVIPRLVQLLVKAHQDAQRHVAAGTQQPYTDGVRMEEIVEGCTGALHILARDPMNRMEIFRLNTIPLFVQLLYSSVENIQRVAAGVLCELAQDKEAADAIDAEGASAPLMELLHSRNEGTATYAAAVLFRISEDKNPDYRKRVSVELTNSLFKHDPAAWEAAQSMIPINEPYGDDMDATYRPMYSSDVPLDPLEMHMDMDGDYPIDTYSDGLRPPYPTADHMLA
